Test results published in patent publication US20060257938A1, “Method of screening for drugs that block ligand binding to a lipid binding protein” (priority 2005, published 2006).
Numbering of substitutions follows the chain as printed. Numbers in names are those of the source.

B1: L1P7B11: FABP probe, substitutions Y14I L38I L72V vs SEQ ID NO: 2 (protein, listed as Rattus norvegicus)
chain: AFDGTWKVDRNENIEKFMEKMGINVVKRKLGAHDNLKITITQEGNKFTVKESSNFRNIDVVFELGVDFAYSVADGTELTGTWTMEGNKLVGKFKRVDNGKELIAVREISGNELIQTYTYEGVEAKRIFKKE
modifications: PEPTIDE (1)...(131) wild-type rat intestinal fatty acid binding protein
B2: L1P12G10: FABP probe, substitution Y14I vs SEQ ID NO: 2 (protein, listed as Rattus norvegicus)
chain: B1 chain with I38L, V72L
modifications: PEPTIDE (1)...(131) wild-type rat intestinal fatty acid binding protein
B3: L1P3D6: FABP probe, substitution Y14L vs SEQ ID NO: 2 (protein, listed as Rattus norvegicus)
chain: B1 chain with I14L, I38L, V72L
modifications: PEPTIDE (1)...(131) wild-type rat intestinal fatty acid binding protein
B4: L1P1F7: FABP probe, substitutions Y14L L38M Y117F vs SEQ ID NO: 2 (protein, listed as Rattus norvegicus)
chain: B1 chain with I14L, I38M, V72L, Y117F
modifications: PEPTIDE (1)...(131) wild-type rat intestinal fatty acid binding protein
B5: L1P14A9: FABP probe, substitutions Y14L L72G Y117I vs SEQ ID NO: 2 (protein, listed as Rattus norvegicus)
chain: B1 chain with I14L, I38L, V72G, Y117I
modifications: PEPTIDE (1)...(131) wild-type rat intestinal fatty acid binding protein
B6: L1P11F12: FABP probe, substitutions Y14L L38I vs SEQ ID NO: 2 (protein, listed as Rattus norvegicus)
chain: B1 chain with I14L, V72L
modifications: PEPTIDE (1)...(131) wild-type rat intestinal fatty acid binding protein
B7: L1P17A8: FABP probe, substitutions L38M L72G Y117F vs SEQ ID NO: 2 (protein, listed as Rattus norvegicus)
chain: B1 chain with I14Y, I38M, V72G, Y117F
modifications: PEPTIDE (1)...(131) wild-type rat intestinal fatty acid binding protein
B8: L1P9G10: FABP probe, substitutions L38I L72G vs SEQ ID NO: 2 (protein, listed as Rattus norvegicus)
chain: B1 chain with I14Y, V72G
modifications: PEPTIDE (1)...(131) wild-type rat intestinal fatty acid binding protein
B9: L1P16G10: FABP probe, substitutions Y14W L72M Y117A vs SEQ ID NO: 2 (protein, listed as Rattus norvegicus)
chain: B1 chain with I14W, I38L, V72M, Y117A
modifications: PEPTIDE (1)...(131) wild-type rat intestinal fatty acid binding protein
B10: L1P5A10: FABP probe, substitution Y117A vs SEQ ID NO: 2 (protein, listed as Rattus norvegicus)
chain: B1 chain with I14Y, I38L, V72L, Y117A
modifications: PEPTIDE (1)...(131) wild-type rat intestinal fatty acid binding protein
B11: L1P8D4: FABP probe, substitutions Y14M L72M Y117A vs SEQ ID NO: 2 (protein, listed as Rattus norvegicus)
chain: B1 chain with I14M, I38L, V72M, Y117A
modifications: PEPTIDE (1)...(131) wild-type rat intestinal fatty acid binding protein
B12: L1P8H2: FABP probe, substitutions Y14M L38M L72W vs SEQ ID NO: 2 (protein, listed as Rattus norvegicus)
chain: B1 chain with I14M, I38M, V72W
modifications: PEPTIDE (1)...(131) wild-type rat intestinal fatty acid binding protein
B13: L1P7H4: FABP probe, substitutions Y14I L38M L72W vs SEQ ID NO: 2 (protein, listed as Rattus norvegicus)
chain: B1 chain with I38M, V72W
modifications: PEPTIDE (1)...(131) wild-type rat intestinal fatty acid binding protein
B14: L1P1C3: FABP probe, substitutions Y14M L72W vs SEQ ID NO: 2 (protein, listed as Rattus norvegicus)
chain: B1 chain with I14M, I38L, V72W
modifications: PEPTIDE (1)...(131) wild-type rat intestinal fatty acid binding protein
B15: L1P17A1: FABP probe, substitutions Y14I L72W vs SEQ ID NO: 2 (protein, listed as Rattus norvegicus)
chain: B1 chain with I38L, V72W
modifications: PEPTIDE (1)...(131) wild-type rat intestinal fatty acid binding protein
B16: L2P4C5: FABP probe, substitutions M18I G31Y vs SEQ ID NO: 2 (protein, listed as Rattus norvegicus)
chain: B1 chain with I14Y, M18I, G31Y, I38L, V72L
modifications: PEPTIDE (1)...(131) wild-type rat intestinal fatty acid binding protein
B17: L2P1E6: FABP probe, substitutions M18L A73L vs SEQ ID NO: 2 (protein, listed as Rattus norvegicus)
chain: B1 chain with I14Y, M18L, I38L, V72L, A73L
modifications: PEPTIDE (1)...(131) wild-type rat intestinal fatty acid binding protein
B18: L2P8F11: FABP probe, substitution A73I vs SEQ ID NO: 2 (protein, listed as Rattus norvegicus)
chain: B1 chain with I14Y, I38L, V72L, A73I
modifications: PEPTIDE (1)...(131) wild-type rat intestinal fatty acid binding protein
B19: L2P12G9: FABP probe, substitutions M18L A73V vs SEQ ID NO: 2 (protein, listed as Rattus norvegicus)
chain: B1 chain with I14Y, M18L, I38L, V72L, A73V
modifications: PEPTIDE (1)...(131) wild-type rat intestinal fatty acid binding protein
B20: L2P9E12: FABP probe, substitutions M18L F55L A73I vs SEQ ID NO: 2 (protein, listed as Rattus norvegicus)
chain: B1 chain with I14Y, M18L, I38L, F55L, V72L, A73I
modifications: PEPTIDE (1)...(131) wild-type rat intestinal fatty acid binding protein

test: Baseline fluorescence ratio Ro of probe in absence of analyte; details: Table 4; baseline ratio, no analyte

In order of falling Ro:
1. B12  0.69
2. B13  0.62
3. B14  0.60
4. B15  0.56
5. B2  0.35
6. B9  0.34
7. B11  0.31
8. B8  0.29
9. B10  0.28
10. B6  0.27
11. B5  0.25
12. B3  0.24
13. B7  0.24
14. B4  0.22
15. B1  0.21

same assay, conditions: Table 5; baseline ratio, no analyte

In order of rising Ro:
1. B18  0.28
2. B17  0.34
3. B16  0.35
4. B20  0.38
5. B19  0.46
